Some of these results come from one statement about several compounds together. At least one structure is not confirmed: it was looked up by name or label, or the drawing left a doubt.
System: calf thymus DNA
Assay: Fluorescence emission and enhancement of compounds bound to calf thymus DNA
Assay type: binding
Description: Compounds 1-65 were prepared and their fluorescence absorption and emission characteristics were measured. Intrinsic fluorescence of the compounds only (without DNA) was negligible. Emission spectra for the compounds bound to dsDNA were obtained by incubating 0.8 μM compound with 500 ng/ml calf thymus DNA in TE buffer (10 mM Tris-HCl, pH 7.5, 1 mM EDTA) in a final volume of 3 ml. Measurements were made using PerkinElmer LS 55 (F-11) Fluorescence spectrometer. Samples were excited at 488 nm and fluorescence emission was measured with emission slit widths of 2.5 nm. Absorption maxima were determined according to standard techniques.
Fluorescence enhancement measurements of the compounds were obtained by incubating 0.8 μM compound with 500 ng/ml calf thymus DNA with compounds at a final concentration of 0.8 μM in TE buffer. Compound 1 was used as an internal standard to control for variability (e.g., in excitation light intensity). The area-under-curve of fluorescence emission spectra from 500 nm to 715 nm was calculated, and compared to that of compound 1, which was defined as having 1000-fold fluorescence enhancement relative to fluorescence of the compound alone.

| SMILES | Intrinsic fluorescence of the compounds only (without DNA) |
| --- | --- |
| CCCCN(CCCN(C)C)C1=C/C(=C/c2sc3ccccc3[n+]2C)c2ccccc2N1c1ccccc1.[I-] [Compound 8] | negligible |
| C[n+]1c(/C=C2/C=C(n3cnc4ccccc43)N(c3ccccc3)c3ccccc32)sc2ccccc21.[Cl-] [Compound 63] | negligible |
| CCCCN(CCC[N+](C)(C)C)C1=C/C(=C/c2sc3ccccc3[n+]2C)c2ccccc2N1c1ccccc1.[I-].[I-] [Compound 9] | negligible |
| CCCN(CCC[N+](C)(C)CCO)C1=C/C(=C/c2sc3ccccc3[n+]2C)c2ccccc2N1c1ccccc1.[I-].[I-] [Compound 5] | negligible |
| CCN(CCC[N+](C)(C)CCO)C1=C/C(=C/c2sc3ccccc3[n+]2C)c2ccccc2N1c1ccccc1.[I-].[I-] [Compound 18] | negligible |
| CCCCN(CCC[N+](C)(C)CCC)C1=C/C(=C/c2sc3ccccc3[n+]2C)c2ccccc2N1c1ccccc1.[I-].[I-] [Compound 11] | negligible |
| CCCCN(CCC[N+](C)(C)CCO)C1=C/C(=C/c2sc3ccccc3[n+]2C)c2ccccc2N1c1ccccc1.[I-].[I-] [Compound 12] | negligible |
| CCCCN(CCC[N+](C)(C)Cc1ccccc1)C1=C/C(=C/c2sc3ccccc3[n+]2C)c2ccccc2N1c1ccccc1.[Br-].[I-] [Compound 13] | negligible |
| CC[N+](C)(C)CCCN(C)C1=C/C(=C/c2sc3ccccc3[n+]2C)c2ccccc2N1c1ccccc1.[I-].[I-] [Compound 23] | negligible |
| CCN(CC[N+](C)(C)Cc1cccc(OC)c1)C1=C/C(=C/c2sc3ccccc3[n+]2C)c2ccccc2N1c1ccccc1.[Br-].[I-] [Compound 33] | negligible |
| CCCCN(CCC[N+](C)(C)Cc1cccc(OC)c1)C1=C/C(=C/c2sc3ccccc3[n+]2C)c2ccccc2N1c1ccccc1.[Br-].[I-] [Compound 14] | negligible |
| CN(CCC[N+](C)(C)C)C1=C/C(=C/c2sc3ccccc3[n+]2C)c2ccccc2N1c1ccccc1.[I-].[I-] [Compound 22] | negligible |
| CCN(CC[N+](C)(C)CC)C1=C/C(=C/c2sc3ccccc3[n+]2C)c2ccc(OC)cc2N1c1ccccc1.[I-].[I-] [Compound 57] | negligible |
| CCC[N+](C)(C)CCN(CC)C1=C/C(=C/c2sc3ccccc3[n+]2C)c2ccccc2N1c1ccccc1.[I-].[I-] [Compound 31] | negligible |
| CCCN(CCC[N+](C)(C)Cc1cccc(OC)c1)C1=CC(=Cc2sc3ccccc3[n+]2C)c2ccc(OC)cc2N1c1ccccc1.[Br-].[I-] [Compound 47] | negligible |
| CCCN(CCC[N+](C)(C)C)C1=CC(=Cc2sc3ccccc3[n+]2C)c2ccc(OC)cc2N1c1ccccc1.[I-].[I-] [Compound 42] | negligible |
| CCCCN(CCC[N+](C)(C)CCC)C1=CC(=Cc2sc3ccccc3[n+]2C)c2ccc(OC)cc2N1c1ccccc1.[I-].[I-] [Compound 37] | negligible |
| CCN(CCN(C)C)C1=C/C(=C/c2sc3ccccc3[n+]2C)c2ccc(OC)cc2N1c1ccccc1.[I-] [Compound 55] | negligible |
| CCN(CCC[N+](C)(C)CC)C1=C/C(=C/c2sc3ccccc3[n+]2C)c2ccccc2N1c1ccccc1.[I-].[I-] [Compound 17] | negligible |

| SMILES | Intrinsic fluorescence of the compounds only (without DNA) |
| --- | --- |
| CCN(CC[N+](C)(C)C)C1=C/C(=C/c2sc3ccccc3[n+]2C)c2ccccc2N1c1ccccc1.[Cl-].[I-] [Compound 29] | negligible |
| CCCN(CCC[N+](C)(C)CC)C1=C/C(=C/c2sc3ccccc3[n+]2C)c2ccccc2N1c1ccccc1.[Cl-].[I-] [Compound 3] | negligible |
| CCN(CCC[N+](C)(C)CC)C1=CC(=Cc2sc3ccccc3[n+]2C)c2ccc(OC)cc2N1c1ccccc1.[I-].[I-] [Compound 50] | negligible |
| CCCCN(CCC[N+](C)(C)Cc1cccc(OC)c1)C1=CC(=Cc2sc3ccccc3[n+]2C)c2ccc(OC)cc2N1c1ccccc1.[Br-].[I-] [Compound 40] | negligible |
| CCC[N+](C)(C)CCCN(CC)C1=CC(=Cc2sc3ccccc3[n+]2C)c2ccc(OC)cc2N1c1ccccc1.[I-].[I-] [Compound 51] | negligible |
| CCN(CCC[N+](C)(C)Cc1cccc(OC)c1)C1=C/C(=C/c2sc3ccccc3[n+]2C)c2ccccc2N1c1ccccc1.[Br-].[I-] [Compound 20] | negligible |
| CCCN(CCC[N+](C)(C)CC)C1=CC(=Cc2sc3ccccc3[n+]2C)c2ccc(OC)cc2N1c1ccccc1.[I-].[I-] [Compound 43] | negligible |
| CCCN(CCC[N+](C)(C)Cc1ccccc1)C1=C/C(=C/c2sc3ccccc3[n+]2C)c2ccc(OC)cc2N1c1ccccc1.[Br-].[I-] [Compound 46] | negligible |
| CCCN(CCC[N+](C)(C)C)C1=CC(=Cc2sc3ccccc3[n+]2C)c2ccccc2N1c1ccccc1.[Cl-].[I-] [Compound 2] | negligible |
| CN(C)CCCN(C)C1=C/C(=C/c2sc3ccccc3[n+]2C)c2ccccc2N1c1ccccc1.[I-] [Compound 21] | negligible |
| CCC[N+](C)(C)CCCN(C)C1=C/C(=C/c2sc3ccccc3[n+]2C)c2ccccc2N1c1ccccc1.[I-].[I-] [Compound 24] | negligible |
| CCN(CC[N+](C)(C)Cc1ccccc1)C1=C/C(=C/c2sc3ccccc3[n+]2C)c2ccc(OC)cc2N1c1ccccc1.[I-].[I-] [Compound 60] | negligible |
| CN(CCC[N+](C)(C)Cc1ccccc1)C1=C/C(=C/c2sc3ccccc3[n+]2C)c2ccccc2N1c1ccccc1.[I-].[I-] [Compound 26] | negligible |
| CCC[N+](C)(C)CCN(CC)C1=C/C(=C/c2sc3ccccc3[n+]2C)c2ccc(OC)cc2N1c1ccccc1.[I-].[I-] [Compound 58] | negligible |
| CCCN(CCC[N+](C)(C)Cc1ccccc1)C1=C/C(=C\c2sc3ccccc3[n+]2C)c2ccccc2N1c1ccccc1.[Br-].[Cl-] [Compound 6] | negligible |
| CCN(CCC[N+](C)(C)Cc1ccccc1)C1=C/C(=C/c2sc3ccccc3[n+]2C)c2ccc(OC)cc2N1c1ccccc1.[Br-].[I-] [Compound 53] | negligible |
| CCCCN(CCC[N+](C)(C)CC)C1=CC(=Cc2sc3ccccc3[n+]2C)c2ccc(OC)cc2N1c1ccccc1.[I-].[I-] [Compound 36] | negligible |
| CCCCN(CCC[N+](C)(C)Cc1ccccc1)C1=CC(=Cc2sc3ccccc3[n+]2C)c2ccc(OC)cc2N1c1ccccc1.[I-].[I-] [Compound 39] | negligible |
